Source: US20140121213A1, “VOLTAGE-GATED SODIUM CHANNEL BLOCKERS” (priority 2011, published 2014)
Counter-ions that a name gives are not always drawn. Some entries share one result that the patent states for a list of compounds. At least one compound was matched to its structure with a doubt left.

Sequences of proteins named here, by UniProt entry; tags and fusion partners are left off.
UniProt Q9NY46, whole entry: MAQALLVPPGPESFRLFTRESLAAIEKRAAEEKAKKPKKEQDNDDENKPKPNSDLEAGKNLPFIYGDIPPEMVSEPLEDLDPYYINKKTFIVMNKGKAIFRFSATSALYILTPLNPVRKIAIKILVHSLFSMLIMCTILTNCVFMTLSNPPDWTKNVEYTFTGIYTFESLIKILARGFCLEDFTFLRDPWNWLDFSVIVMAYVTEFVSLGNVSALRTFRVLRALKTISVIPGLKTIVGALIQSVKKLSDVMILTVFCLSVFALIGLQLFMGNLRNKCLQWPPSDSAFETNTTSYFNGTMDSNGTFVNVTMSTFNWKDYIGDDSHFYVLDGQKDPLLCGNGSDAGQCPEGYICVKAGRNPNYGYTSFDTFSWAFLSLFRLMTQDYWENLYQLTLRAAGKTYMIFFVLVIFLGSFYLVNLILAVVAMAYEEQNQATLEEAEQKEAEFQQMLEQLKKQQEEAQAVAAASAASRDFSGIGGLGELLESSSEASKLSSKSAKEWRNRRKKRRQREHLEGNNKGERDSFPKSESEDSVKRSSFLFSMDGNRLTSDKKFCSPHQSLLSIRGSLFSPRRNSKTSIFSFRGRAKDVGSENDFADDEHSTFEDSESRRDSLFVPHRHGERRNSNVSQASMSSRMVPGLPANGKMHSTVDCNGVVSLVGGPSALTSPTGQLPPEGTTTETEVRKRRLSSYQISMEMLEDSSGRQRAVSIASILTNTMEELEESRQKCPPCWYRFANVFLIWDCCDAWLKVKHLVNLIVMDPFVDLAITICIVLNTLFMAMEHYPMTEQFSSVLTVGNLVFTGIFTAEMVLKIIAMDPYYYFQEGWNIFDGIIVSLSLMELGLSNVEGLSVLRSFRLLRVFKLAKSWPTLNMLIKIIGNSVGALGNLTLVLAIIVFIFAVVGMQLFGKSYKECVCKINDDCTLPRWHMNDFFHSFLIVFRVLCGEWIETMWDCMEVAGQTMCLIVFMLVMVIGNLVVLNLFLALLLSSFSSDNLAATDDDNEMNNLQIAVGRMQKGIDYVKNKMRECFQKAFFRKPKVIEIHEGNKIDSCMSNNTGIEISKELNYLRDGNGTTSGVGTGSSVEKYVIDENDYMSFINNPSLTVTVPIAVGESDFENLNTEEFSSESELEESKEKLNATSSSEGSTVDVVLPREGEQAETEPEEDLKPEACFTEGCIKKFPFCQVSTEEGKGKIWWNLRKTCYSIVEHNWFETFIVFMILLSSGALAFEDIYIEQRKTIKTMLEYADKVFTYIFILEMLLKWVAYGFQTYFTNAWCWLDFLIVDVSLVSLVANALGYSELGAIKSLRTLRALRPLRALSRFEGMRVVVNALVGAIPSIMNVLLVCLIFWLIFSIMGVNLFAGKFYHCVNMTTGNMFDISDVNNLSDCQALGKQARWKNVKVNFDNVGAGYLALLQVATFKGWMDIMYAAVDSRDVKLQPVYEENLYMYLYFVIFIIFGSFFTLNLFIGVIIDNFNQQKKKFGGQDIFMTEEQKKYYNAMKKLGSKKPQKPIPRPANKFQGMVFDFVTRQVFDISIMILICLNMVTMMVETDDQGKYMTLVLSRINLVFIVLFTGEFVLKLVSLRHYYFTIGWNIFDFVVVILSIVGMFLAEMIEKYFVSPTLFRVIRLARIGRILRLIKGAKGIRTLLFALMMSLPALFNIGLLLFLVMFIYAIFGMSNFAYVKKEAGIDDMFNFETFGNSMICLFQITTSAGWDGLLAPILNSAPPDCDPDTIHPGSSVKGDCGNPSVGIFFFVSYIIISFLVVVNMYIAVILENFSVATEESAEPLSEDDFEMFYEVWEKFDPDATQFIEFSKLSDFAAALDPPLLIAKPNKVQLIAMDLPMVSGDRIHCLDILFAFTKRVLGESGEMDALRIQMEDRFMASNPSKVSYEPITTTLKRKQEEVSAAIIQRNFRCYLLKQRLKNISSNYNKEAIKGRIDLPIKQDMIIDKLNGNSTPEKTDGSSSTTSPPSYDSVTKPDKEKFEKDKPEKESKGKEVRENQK
UniProt Q15858, whole entry: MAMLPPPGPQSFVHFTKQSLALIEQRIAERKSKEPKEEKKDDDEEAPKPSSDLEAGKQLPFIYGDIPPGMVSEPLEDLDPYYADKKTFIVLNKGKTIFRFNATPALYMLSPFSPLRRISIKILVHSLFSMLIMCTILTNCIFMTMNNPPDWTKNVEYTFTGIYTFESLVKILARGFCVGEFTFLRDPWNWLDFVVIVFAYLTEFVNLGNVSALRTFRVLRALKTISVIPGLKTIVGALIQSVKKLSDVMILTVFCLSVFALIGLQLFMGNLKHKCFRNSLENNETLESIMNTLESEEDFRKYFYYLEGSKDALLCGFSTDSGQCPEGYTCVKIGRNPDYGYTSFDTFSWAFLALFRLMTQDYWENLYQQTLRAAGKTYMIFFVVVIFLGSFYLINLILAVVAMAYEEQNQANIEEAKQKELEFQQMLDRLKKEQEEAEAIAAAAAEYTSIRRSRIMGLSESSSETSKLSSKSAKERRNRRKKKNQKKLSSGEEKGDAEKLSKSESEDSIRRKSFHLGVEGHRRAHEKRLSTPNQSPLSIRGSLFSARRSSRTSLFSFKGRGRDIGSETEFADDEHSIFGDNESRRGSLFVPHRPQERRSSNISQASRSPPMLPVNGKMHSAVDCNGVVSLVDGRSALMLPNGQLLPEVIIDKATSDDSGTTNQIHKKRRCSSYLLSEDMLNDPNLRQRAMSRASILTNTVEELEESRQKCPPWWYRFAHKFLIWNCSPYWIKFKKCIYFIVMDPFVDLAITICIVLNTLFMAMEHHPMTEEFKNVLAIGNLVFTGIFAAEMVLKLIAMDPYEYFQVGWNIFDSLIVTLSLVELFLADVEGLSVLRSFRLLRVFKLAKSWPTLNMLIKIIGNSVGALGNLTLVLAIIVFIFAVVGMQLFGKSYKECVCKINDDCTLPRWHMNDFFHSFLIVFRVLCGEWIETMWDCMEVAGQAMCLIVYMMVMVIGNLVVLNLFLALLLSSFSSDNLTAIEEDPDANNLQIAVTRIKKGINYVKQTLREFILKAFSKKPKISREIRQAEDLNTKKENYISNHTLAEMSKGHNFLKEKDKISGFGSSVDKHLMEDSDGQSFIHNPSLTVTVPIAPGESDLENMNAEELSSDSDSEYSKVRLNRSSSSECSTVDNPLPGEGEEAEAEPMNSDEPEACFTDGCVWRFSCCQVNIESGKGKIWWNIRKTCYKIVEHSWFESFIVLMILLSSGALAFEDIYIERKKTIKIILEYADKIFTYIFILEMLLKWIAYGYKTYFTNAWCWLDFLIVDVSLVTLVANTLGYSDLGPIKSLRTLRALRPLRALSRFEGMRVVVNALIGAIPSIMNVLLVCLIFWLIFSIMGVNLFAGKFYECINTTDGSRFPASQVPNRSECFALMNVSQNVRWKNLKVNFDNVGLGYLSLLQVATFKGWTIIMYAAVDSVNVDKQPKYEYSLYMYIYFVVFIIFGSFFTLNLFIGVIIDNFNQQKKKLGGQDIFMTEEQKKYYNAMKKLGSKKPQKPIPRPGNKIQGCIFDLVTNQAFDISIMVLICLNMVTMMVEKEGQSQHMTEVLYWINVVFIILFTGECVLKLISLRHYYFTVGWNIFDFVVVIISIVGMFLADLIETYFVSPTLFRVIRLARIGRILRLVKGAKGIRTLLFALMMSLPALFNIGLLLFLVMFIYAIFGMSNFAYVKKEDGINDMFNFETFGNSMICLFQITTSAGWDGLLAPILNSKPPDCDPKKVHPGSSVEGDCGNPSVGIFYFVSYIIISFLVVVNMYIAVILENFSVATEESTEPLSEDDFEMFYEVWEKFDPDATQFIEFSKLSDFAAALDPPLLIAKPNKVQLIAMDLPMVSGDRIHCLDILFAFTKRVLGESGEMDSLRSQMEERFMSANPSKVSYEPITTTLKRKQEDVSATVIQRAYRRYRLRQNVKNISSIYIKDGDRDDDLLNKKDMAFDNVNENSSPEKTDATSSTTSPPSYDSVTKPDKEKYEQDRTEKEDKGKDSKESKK

Tests used:
[1] = target: T1, hNaV1.3 channels (Homo sapiens, UniProt Q9NY46); assay: Use-dependent inhibition of NaV1.3 currents, IonWorks Quattro planar array electrophysiology; format: cell-based; details: use-dependent; concentration producing 15% inhibition, 10th versus 1st depolarizing pulse, 10 Hz
T1 construct: expressed in transfected cells

[2] = target: NaV 1.7 (Homo sapiens, UniProt Q15858); assay: Use-dependent inhibition of NaV1.7 currents, IonWorks Quattro planar array electrophysiology; format: cell-based; details: use-dependent; concentration producing 15% inhibition, 10th versus 1st depolarizing pulse, 10 Hz

Compound | pUD15 against NaV1.3 [1] | pUD15 against NaV1.7 [2]
1H-pyrazole-3,5-diylbis[methanediyl(ethylimino)(3R)-3,1-pyrrolidinediyl-2,3-pyridinediyl methanediyl]bis(3,3-dimethylbutanoate) quaternary hydrochloride [Example 540] | 4-4.99 | 4-4.99
CCc1ccc(CN2CCN(c3ncccc3C(=O)OC(C)C)CC2)s1 [Example 1, 1-Methylethyl 2-{4-[(5-ethyl-2-thienyl)methyl]-1-piperazinyl}-3-pyridinecarboxylate] | 5-5.99 | 5-5.99
Cc1cc(CN2CCN(c3ncccc3C(=O)OC(C)C)CC2)sc1C [Example 2, 1-Methylethyl 2-{4-[(4,5-dimethyl-2-thienyl)methyl]-1-piperazinyl}-3-pyridinecarboxylate] | 5-5.99 | 5-5.99
CCc1cccc(CN[C@H]2CCN(c3ncccc3C(=O)OC(C)C)C2)c1 [Example 9, 1-Methylethyl 2-((3S)-3-{[(3-ethylphenyl)methyl]amino}-1-pyrrolidinyl)-3-pyridine carboxylate] | 5-5.99 | 5-5.99
CCc1ccc(CN(C)[C@H]2CCN(c3ncccc3C(=O)OC(C)C)C2)s1 [Example 12, 1-Methylethyl 2-{(3S)-3-[[(5-ethyl-2-thienyl)methyl](methyl)amino]-1-pyrrolidinyl}-3-pyridinecarboxylate] | 4-4.99 | 5-5.99
Cc1cc(CN(C)[C@H]2CCN(c3ncccc3C(=O)OC(C)C)C2)sc1C [Example 13, 1-Methylethyl 2-{(3S)-3-[[(4,5-dimethyl-2-thienyl)methyl](methyl)amino]-1-pyrrolidinyl}-3-pyridinecarboxylate] | 5-5.99 | 4-4.99
CCc1ccc(CN(C)[C@H]2CCN(c3ncccc3C(=O)OC(C)C)C2)cc1 [Example 15, 1-Methylethyl 2-{(3S)-3-[[(4-ethylphenyl)methyl](methyl)amino]-1-pyrrolidinyl}-3-pyridinecarboxylate] | 5-5.99 | 5-5.99
CCc1ccccc1CN(C)[C@H]1CCN(c2ncccc2C(=O)OC(C)C)C1 [Example 16, 1-Methylethyl 2-{(3S)-3-[[(2-ethylphenyl)methyl](methyl)amino]-1-pyrrolidinyl}-3-pyridinecarboxylate] | 5-5.99 | 5-5.99
CCN(Cc1cc(C)c(C)s1)[C@H]1CCN(c2ncccc2C(=O)OC(C)C)C1 [Example 18, 1-Methylethyl 2-{(3S)-3-[[(4,5-dimethyl-2-thienyl)methyl](ethyl)amino]-1-pyrrolidinyl}-3-pyridinecarboxylate] | 5-5.99 | 5-5.99
CCc1ccccc1CN(CC)[C@H]1CCN(c2ncccc2C(=O)OC(C)C)C1 [Example 21, 1-Methylethyl 2-((3S)-3-{ethyl[(2-ethylphenyl)methyl]amino}-1-pyrrolidinyl)-3-pyridinecarboxylate] | 5-5.99 | 4-4.99
CC(C)OC(=O)c1cccnc1N(C)[C@@H]1CCNC1 [Example 25, 1-Methylethyl 2-{methyl[(3R)-3-pyrrolidinyl]amino}-3-pyridinecarboxylate hydrochloride] | 5-5.99 | 4-4.99
CC(C)OC(=O)c1cccnc1N1CCN(CCc2ccccc2)CC1 [Example 28, 1-Methylethyl 2-[4-(2-phenylethyl)-1-piperazinyl]-3-pyridinecarboxylate hydrochloride] | 5-5.99 | 5-5.99
CC(C)OC(=O)c1cccnc1N1CCN(Cc2ccc(CCCc3ccccc3)cc2)CC1 [Example 29, 1-Methylethyl2-(4-{[4-(3-phenylpropyl)phenyl]methyl}-1-piperazinyl)-3-pyridine carboxylate hydrochloride] | 5-5.99 | 4-4.99
CC(C)OC(=O)c1cccnc1N1CCN(Cc2ccc(N(C)C(=O)c3ccccc3)cc2)CC1 [Example 31, 1-Methylethyl 2-[4-({4-[methyl(phenylcarbonyl)amino]phenyl}methyl)-1-piperazinyl]-3-pyridinecarboxylate hydrochloride] | 4-4.99 | 4-4.99
CC(C)OC(=O)c1cccnc1N1CCN(Cc2cccc(C(=O)N(C)C)c2)CC1 [Example 32, 1-methylethyl 2-[4-({3-[(dimethylamino)carbonyl]phenyl}methyl)-1-piperazinyl]-3-pyridinecarboxylate hydrochloride] | 5-5.99 | 5-5.99
CC(C)OC(=O)c1cccnc1N1CCN(Cc2ccc(C(=O)N(C)C)cc2)CC1 [Example 33, 1-Methylethyl 2-[4-({4-[(dimethylamino)carbonyl]phenyl}methyl)-1-piperazinyl]-3-pyridinecarboxylate hydrochloride] | 5-5.99 | 5-5.99

Compound | pUD15 against NaV1.3 [1] | pUD15 against NaV1.7 [2]
CC(C)OC(=O)c1cccnc1N1CCN(Cc2ccc(CO)cc2)CC1 [Example 34, 1-Methylethyl2-(4-{[4-(hydroxymethyl)phenyl]methyl}-1-piperazinyl)-3-pyridine carboxylate hydrochloride] | 4-4.99 | 5-5.99
CC(C)OC(=O)c1cccnc1N1CCN(Cc2ccc(Sc3ccccc3)cc2)CC1 [Example 36, 1-Methylethyl 2-(4-{[4-(phenylthio)phenyl]methyl}-1-piperazinyl)-3-pyridinecarboxylate hydrochloride] | 4-4.99 | 4-4.99
CCN[C@H]1CCN(c2ncccc2C(=O)OC(C)C)C1 [Example 39, 1-Methylethyl 2-[(3S)-3-(ethylamino)-1-pyrrolidinyl]-3-pyridinecarboxylate hydrochloride] | 5-5.99 | 4-4.99
CC(C)OC(=O)c1cccnc1N1CCN(Cc2ccc(CCc3ccccc3)cc2)CC1 [Example 40, 1-Methylethyl2-(4-{[4-(2-phenylethyl)phenyl]methyl}-1-piperazinyl)-3-pyridinecarboxylate hydrochloride] | 5-5.99 | 5-5.99
CCN(Cc1ccc(CN(CC)[C@@H]2CCN(c3ncccc3C(=O)OC(C)C)C2)cc1)[C@@H]1CCN(C(=O)C(C)C)C1 [Example 42, 1-Methylethyl2-[(3R)-3-(ethyl{[4-({ethyl[(3R)-1-(2-methylpropanoyl)-3-pyrrolidinyl]amino}methyl)phenyl]methyl}amino)-1-pyrrolidinyl]-3-pyridinecarboxylate] | 5-5.99 | 5-5.99
CCN(Cc1ccc(-c2ccccc2)o1)[C@@H]1CCN(c2ncccc2C(=O)OC(C)C)C1 [Example 46] | 4-4.99 | 5-5.99
CCN(Cc1ccc(-c2ccccc2)cc1)[C@@H]1CCN(c2ncccc2C(=O)OC(C)C)C1 [Example 47] | 4-4.99 | 4-4.99
CCN(Cc1cccc(Oc2ccccc2)c1)[C@@H]1CCN(c2ncccc2C(=O)OC(C)C)C1 [Example 50] | 4-4.99 | 4-4.99
CCN(Cc1ccccc1Oc1ccc(F)cc1)[C@@H]1CCN(c2ncccc2C(=O)OC(C)C)C1 [Example 53] | 5-5.99 | 4-4.99
CCN(Cc1ccc(Cl)cc1)Cc1ccc(CN2CCN(c3ncccc3C(=O)OC(C)C)CC2)cc1 [Example 498, 1-methylethyl 2-{4-[(4-{[[(4-chlorophenyl)methyl](ethyl)amino]methyl}phenyl)methyl]-1-piperazinyl}-3-pyridinecarboxylate] | – | 4-4.99
CCN(Cc1ccc(CN(CC)[C@@H]2CCN(c3ncccc3C(=O)OC(C)C)C2)cc1)Cc1c(F)cccc1Cl [Example 503, 1-methylethyl 2-{(3R)-3-[[(4-{[[(2-chloro-6-fluorophenyl)methyl](ethyl)amino]methyl}phenyl)methyl](ethyl)amino]-1-pyrrolidinyl}-3-pyridinecarboxylate] | – | 4-4.99
CC(C)OC(=O)c1cccnc1N1CCN(Cc2ccc(CN(CCCN3CCCC3=O)Cc3c(F)cccc3Cl)cc2)CC1 [Example 504, 1-methylethyl 2-(4-{[4-({[(2-chloro-6-fluorophenyl)methyl][3-(2-oxo-1-pyrrolidinyl)propyl]amino}methyl)phenyl]methyl}-1-piperazinyl)-3-pyridinecarboxylate] | – | 5-5.99
CCN(Cc1ccc(CN2CCN(c3ncccc3COC(=O)C3C(C)(C)C3(C)C)CC2)cc1)Cc1c(F)cccc1Cl [Example 505, (2-{4-[(4-{[[(2-chloro-6-fluorophenyl)methyl](ethyl)amino]methyl}phenyl)methyl]-1-piperazinyl}-3-pyridinyl)methyl 2,2,3,3-tetramethylcyclopropanecarboxylate] | – | 5-5.99
CCN(Cc1ccc(CN2CCN(c3ncccc3COC(=O)C3CC3)CC2)cc1)Cc1c(F)cccc1Cl [Example 511, (2-{4-[(4-{[[(2-chloro-6-fluorophenyl)methyl](ethyl)amino]methyl}phenyl)methyl]-1-piperazinyl}-3-pyridinyl)methyl cyclopropanecarboxylate] | – | 5-5.99
CCN(Cc1cccc(CN(CC)[C@@H]2CCN(c3ncccc3C(=O)OC(C)C)C2)c1)Cc1c(F)cccc1Cl [Example 522, 1-methylethyl 2-{(3R)-3-[[(3-{[[(2-chloro-6-fluorophenyl)methyl](ethyl)amino]methyl}phenyl)methyl](ethyl)amino]-1-pyrrolidinyl}-3-pyridinecarboxylate] | – | 5-5.99
CC(C)OC(=O)c1cccnc1N1CCN(Cc2ccc(CNC(=O)c3ccccc3F)cc2)CC1 [Example 524, 1-methylethyl 2-(4-{[4-({[(2-fluorophenyl)carbonyl]amino}methyl)phenyl]methyl}-1-piperazinyl)-3-pyridinecarboxylate] | – | 5-5.99
